Experimental data reported in PubChem BioAssay AID624297 (National Center for Advancing Translational Sciences (NCATS), 2012).
The whole screen tested about 340,000 compounds, of which about 6,200 (1.8%) were called active. Inconclusive means that the source gave no clear call. Such entries were picked first, then a sample of the others. Calls come from the whole dose curve; as a rule, active = well fitted activation curve with a large enough effect; inconclusive = small, poorly fitted or top-dose-only effect; inactive = no such curve, though single readings can be large or run the other way. Potencies beside an inconclusive call are fits to weak or partial responses and may not hold up.
Potency is the fitted concentration of half-maximal effect.

Assay: A quantitative high throughput screen for small molecules that induce DNA re-replication in SW480 colon adenocarcinoma cells. For re-replication activation: % of control where 0% means no effect. Note: nearly all actives have a fitted effect of over 55% in size.
Settings: Hoechst DNA content imaging, 48 h; re-replication activation: at 46.1 µM (top of the series) unless noted
In short: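 250 cells/well; 23 nL cpd via pin tool; 48 hr, 37 C, 5% CO2; Hoechst 40 min; imager read of total nuclear intensity, ex 405/em 500-530 nm.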
For `O=[N+]([O-])/C=C/c1cn(Cc2ccc(F)cc2)c2ccccc12`, the Potency was inconclusive: 25.9 µM [activator, single point].
In the case of `Cc1cccc(OCCNc2cc(N3CCN(CCO)CC3)ccc2[N+](=O)[O-])c1`, the Potency is reported as inconclusive: 29.1 µM [activator, single point].
For `Cc1ccc(S(=O)(=O)N2C[C@@H]3[C@H]4CC[C@H](C4)[C@@H]3[C@@H](C)[C@H]2c2ccco2)cc1`, the Potency was inconclusive: 0.731 µM [activator, partial curve, poor fit].
For `CC(=O)N[C@@H](Cc1c[nH]c2ccccc12)C(=O)OCc1ccc(C#N)cc1`, the Potency was inconclusive: 4.47 µM [activator, full curve, poor fit].
In the case of `Cc1ccc2c3c1C(=O)C(=O)N3C(C)(C)CC2C` (stereo unspecified), the Potency is reported as inconclusive: 29.1 µM [activator, partial curve, poor fit].
In the case of `Cc1ccc(S(=O)(=O)N2CCN(C(=O)c3c(C)nn(-c4ccccc4)c3Cl)CC2)cc1`, the Potency is reported as inconclusive: 20.6 µM [activator, single point].
With `CCN(C(=O)COC(=O)CNC(=O)C1CCCCC1)c1ccccc1` the Potency was inconclusive: 6.51 µM [activator, single point].
With `O=c1cc(-c2ccccc2)nc(/C=C/c2ccccc2)[nH]1` the Potency was inconclusive: 18.4 µM [activator, single point].
With `CCOc1cc(C)nc(N2CCC(C(=O)NC3CC3)CC2)n1` the “re-replication activation” value was inactive: -10.7%.
For `Cc1ccc(NC(=O)c2cccc3c2C(=O)N(C2CCCCC2)C3)cc1`, the “re-replication activation” value was inactive: -5.22%.
For `O=C(N/N=C/c1ccco1)c1ccccc1OCc1ccccc1Cl`, the “re-replication activation” value was inactive: -5.73%.
For `CC1(C)CC(=O)C(=Cc2cn(CCC#N)nc2-c2ccc(Cl)cc2)C(=O)C1`, the Potency was inconclusive: 2.31 µM [activator, full curve, poor fit].
For `CCc1ccc(-n2c(C)cc(/C=N/NC(=O)OC)c2C)cc1`, the Potency was inconclusive: 3.66 µM [activator, partial curve, poor fit].
With `COc1ccc(/C=C(\NC(=O)c2ccccc2)C(=O)N2CCN(C)CC2)cc1OC` the “re-replication activation” value was inactive: -4.6%.
With `O=C(c1cnc2c(c1)COc1ccc(Cl)cc1-2)c1ccccc1O` the “re-replication activation” value was inactive: -2.82%.
In the case of `O=C1CCCN1c1ccc(C(=O)N(Cc2nnc(-c3ccccc3Cl)o2)C2CC2)cc1`, the Potency is reported as inconclusive: 20.6 µM [activator, single point].
With `CCOC(=O)C1C(c2ccc3c(c2)OCO3)NC(=O)NC1(O)C(F)(F)F` (stereo unspecified) the Potency was inconclusive: 29.1 µM [activator, single point].
With `COC(=O)c1ccc(N=C2SCC(=O)N2C)cc1` the Potency was inconclusive: 6.51 µM [activator, single point].
With `CCN(CC(=O)Nc1c(F)cccc1F)C(=O)c1nn(C)c(=O)c2ccccc12` the Potency was inconclusive: 3.66 µM [activator, single point].
With `Cc1nc2ccccc2c2oc(C(=O)N3CCN(c4ccc([N+](=O)[O-])cc4)CC3)cc12` the Potency was inconclusive: 0.731 µM [activator, full curve, poor fit].
In the case of `O=C1/C(=C\c2ccsc2)N2CCC1CC2`, the “re-replication activation” value is reported as inactive: -3.98%.
With `CCOC(=O)CN1C(c2ccc(O)cc2)Nc2ccc(Br)cc2C1c1ccccc1` (stereo unspecified) the Potency was inconclusive: 17.8 µM [activator, single point].
For `Cc1cccc2cc(CN(CC3CCCO3)C(c3nnnn3Cc3ccco3)C(C)C)c(=O)[nH]c12` (stereo unspecified), the Potency was inconclusive: 32.6 µM [activator, partial curve, poor fit].
With `CCN(CC)c1nc(C#N)cc(-c2ccc(OC)cc2)n1` the Potency was active: 11.6 µM.
For `Cc1ccc(NC(=S)Nc2nc(CC(=O)Nc3ccccc3)cs2)cc1`, the Potency was inconclusive: 16.4 µM [activator, single point].
In the case of `O=C(Nc1ccccc1Cl)c1cc2ccccc2o/c1=N\O`, the Potency is reported as inconclusive: 23.1 µM [activator, single point].
In the case of `O=C(/C=C/c1cccc([N+](=O)[O-])c1)NC(=S)Nc1ccc(CN2CCOCC2)cc1`, the Potency is reported as inconclusive: 29.1 µM [activator, single point].
In the case of `COc1ccc(NC(=O)CSc2nnc(-c3ccco3)n2C)cc1`, the “re-replication activation” value is reported as inactive: 2.82%.
With `O=S(=O)(CCN1CCCC1)NCCNS(=O)(=O)c1ccc(F)cc1Br` the Potency was inconclusive: 2.06 µM [activator, full curve, poor fit].
In the case of `COc1ccc(CCc2nnc(CCC(=O)NCc3cnc4ccccn34)o2)cc1`, the Potency is reported as inconclusive: 6.51 µM [activator, single point].
With `CC(C)C1N=C2c3ccccc3N=C(SCC(=O)c3ccc(O)c(O)c3)N2C1=O` (stereo unspecified) the Potency was inconclusive: 17.8 µM [activator, single point].
For `O=C(COc1ccccc1F)N1N=C(c2cccs2)CC1c1ccco1` (stereo unspecified), the Potency was inconclusive: 2.59 µM [activator, partial curve, poor fit].
For `NNc1nc(-c2ccccc2Cl)nc2sc3c(c12)CCCC3`, the Potency was inconclusive: 20.6 µM [activator, single point].
For `O=C(N/N=C/C(Br)=C/c1ccccc1)C1CC1`, the Potency was inconclusive: 16.4 µM [activator, single point].
For `Cc1ccn2c(=O)c(C(=O)NC3CCCCC3C)c(O)nc2c1` (stereo unspecified), the Potency was inconclusive: 0.92 µM [activator, full curve, poor fit].
With `CC/C(=N\NC(=S)Nc1cccc(C)c1)c1ccccc1` the Potency was inconclusive: 16.4 µM [activator, single point].
For `Cc1ccc(S(=O)(=O)NCCOC(=O)Nc2sc(=S)n(C)c2C)cc1`, the Potency was inconclusive: 29.1 µM [activator, single point].
For `Nc1ncnc(Sc2ccc(Cl)cc2)c1[N+](=O)[O-]`, the “re-replication activation” value was inactive: -2.76%.
For `O=C(/C=C/c1ccc(Cl)c([N+](=O)[O-])c1)c1ccc(O)cc1`, the Potency was inconclusive: 20.6 µM [activator, single point].
With `CCC(C(=O)NCCCN1CCCCCC1)n1nc(C)c2sc3ccccc3c2c1=O` (stereo unspecified) the Potency was inconclusive: 6.51 µM [activator, single point].
For `COc1ccc(OC)c(N2C(=O)CC(Cc3cc(C)cc(C)c3)C2=O)c1` (stereo unspecified), the Potency was inconclusive: 2.91 µM [activator, single point].
